Values from PubChem BioAssay AID1259308 (NCATS, 2017).

- Screen: 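Candidate targets for better recombinant protein yield in mammalian cells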 (primary screen)
- Cells: human HEK293 embryonic kidney cells stably expressing firefly luciferase (HEK-CMV-Luc2-Hygro)
- Reagents: single siRNA against human genes, 0.8 pmol siRNA per well
- Duration: 72 h
- Detection: 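Luciferase light (ONE-Glo) measured on one replicate plate set and viability (CellTiter-Glo) on the other, scaled to a negative control siRNA, with robust z-scores and luciferase per cell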
- Scale: total luciferase, z-score: higher = more reporter protein produced
- Hit rule: 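An siRNA counts as active if its total luciferase robust z-score exceeds 3; genes with two or more such siRNAs out of three were retested with fresh siRNAs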
- Meaning of the calls: active = raised luciferase; inactive = no rise
Shown is an unselected part of about 59,000 reagents. About 1,510 of all reagents (2.6%) were called active. 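Calls use total luciferase alone and ignore viability, so some active siRNAs may act by altering cell number.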 A number with no mark means an inactive call. The numbers tell different reagents against one gene apart. Further read-outs or replicates are left out here.

| Target gene | reagent no. | total luciferase, z-score |
| --- | --- | --- |
| BUD31 | 1 | -2.21 |
| BUD31 | 2 | -0.54 |
| BUD31 | 3 | 0.403 |
| IFT74 | 1 | -0.409 |
| IFT74 | 2 | -0.512 |
| IFT74 | 3 | -0.225 |
| PFKFB3 | 1 | -0.904 |
| PFKFB3 | 2 | -0.169 |
| PFKFB3 | 3 | -0.751 |
| IL1RAPL2 | 1 | -1.96 |
| IL1RAPL2 | 2 | 0.0518 |
| IL1RAPL2 | 3 | 1.32 |
| CLEC11A | 1 | -0.472 |
| CLEC11A | 2 | -0.246 |
| CLEC11A | 3 | -1.27 |
| P2RY6 | 1 | -1.4 |
| P2RY6 | 2 | -1.3 |
| P2RY6 | 3 | -0.7 |
| LIPC | 1 | 1.55 |
| LIPC | 2 | 0.777 |
| LIPC | 3 | 1.1 |
| LOC646471 | 1 | -0.254 |
| LOC646471 | 2 | 1.09 |
| LOC646471 | 3 | 5.7 (active) |
| INMT | 1 | 0.581 |
| INMT | 2 | 2.02 |
| INMT | 3 | -2.54 |
| MTHFD1 | 1 | -0.457 |
| MTHFD1 | 2 | -0.0417 |
| MTHFD1 | 3 | 0.21 |
| ZSCAN5B | 1 | 0.177 |
| ZSCAN5B | 2 | -0.781 |
| ZSCAN5B | 3 | 2.03 |
| ERFE | 1 | -1.05 |
| ERFE | 2 | -1.07 |
| ERFE | 3 | -0.312 |
| VANGL2 | 1 | 0.131 |
| VANGL2 | 2 | -1.42 |
| VANGL2 | 3 | 0.00857 |
| CBY3 | 1 | 0.0982 |
| CBY3 | 2 | -0.258 |
| CBY3 | 3 | -0.141 |
| FZR1 | 1 | -0.461 |
| FZR1 | 2 | -0.747 |
| FZR1 | 3 | 0.416 |
| GALNT1 | 1 | -0.532 |
| GALNT1 | 2 | -1.22 |
| GALNT1 | 3 | -1.1 |
| TRMT112 | 1 | -1.21 |
| TRMT112 | 2 | -1.21 |
| TRMT112 | 3 | -0.72 |
| ST3GAL4 | 1 | -0.836 |
| ST3GAL4 | 2 | 0.228 |
| ST3GAL4 | 3 | -0.122 |
| DUS1L | 1 | -0.0237 |
| DUS1L | 2 | -0.583 |
| DUS1L | 3 | 1.6 |

Called active, among the entries above:
| Target gene | reagent no. | total luciferase, z-score |
| --- | --- | --- |
| LOC646471 | 3 | 5.7 (active) |
